Assay [1] has as its target CAVEOLIN-1 (human (endogenous in MSCs)) (UniProt Q03135). Nature of the assay: proximity ligation; Duolink PLA on MSCs grown on cover slides and incubated with His-tag-IGFBP5; primary antibodies anti-His-Tag with anti-CAV1 (5 min after incubation) or anti-RARα (10 min after incubation); fluorescence microscopy; only the binder purified.
Assay [2] has as its target RXRα (retinoid X receptor alpha), endogenous (human (endogenous in MSCs)) (UniProt P19793). Description: co-IP; MSCs incubated with His-tag-IGFBP5; lysed in 0.1% Triton buffer; 20 μg lysate with 2 μg anti-IGFBP5 (text: anti-His-tag), anti-RXRα or anti-RARα antibody for 12 h at 4°C; protein A/G magnetic beads; western blot.
The target of assay [3] is His-tag-IGFBP5 recombinant protein (human) (UniProt P24593). The description is as above.

By UniProt entry, the sequences of proteins in these tests, tags left out. Residues count along the entry.
UniProt Q03135: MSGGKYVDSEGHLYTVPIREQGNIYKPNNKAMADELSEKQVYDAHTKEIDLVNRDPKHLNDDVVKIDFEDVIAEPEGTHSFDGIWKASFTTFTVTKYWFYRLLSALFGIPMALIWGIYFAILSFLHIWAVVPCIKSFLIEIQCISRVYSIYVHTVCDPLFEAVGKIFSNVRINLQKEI
UniProt P19793: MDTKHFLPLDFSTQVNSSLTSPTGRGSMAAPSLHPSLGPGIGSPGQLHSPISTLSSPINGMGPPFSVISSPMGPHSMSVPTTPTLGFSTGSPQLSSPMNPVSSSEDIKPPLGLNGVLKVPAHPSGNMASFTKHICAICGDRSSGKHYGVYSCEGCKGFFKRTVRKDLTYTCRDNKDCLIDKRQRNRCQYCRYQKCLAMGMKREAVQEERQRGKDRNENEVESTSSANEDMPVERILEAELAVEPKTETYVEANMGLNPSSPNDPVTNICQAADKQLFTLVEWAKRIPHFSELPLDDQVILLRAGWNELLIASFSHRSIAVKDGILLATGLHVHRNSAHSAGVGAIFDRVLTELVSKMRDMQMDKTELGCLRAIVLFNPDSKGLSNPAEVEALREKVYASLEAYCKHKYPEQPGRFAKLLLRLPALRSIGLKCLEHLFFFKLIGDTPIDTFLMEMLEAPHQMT
UniProt P24593, residues 21-272: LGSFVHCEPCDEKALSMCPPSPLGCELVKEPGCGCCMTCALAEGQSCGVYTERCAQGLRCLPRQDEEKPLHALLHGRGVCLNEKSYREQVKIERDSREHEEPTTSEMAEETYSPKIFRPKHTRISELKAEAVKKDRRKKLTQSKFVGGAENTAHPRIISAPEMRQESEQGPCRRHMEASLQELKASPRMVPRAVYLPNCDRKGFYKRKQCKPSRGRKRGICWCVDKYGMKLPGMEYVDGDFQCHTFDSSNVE

No constants are given. Whether binding was seen depends on the method and setting. In cells and extracts the contact can be indirect. Some entries that bind do so weakly or less than the wild type.

As to “His-tag-IGFBP5 recombinant protein (from UniProt P24593 21-272)”, the binding entry in assay [1] and in assay [2] was “binds” each time.
Consider “RXRα (retinoid X receptor alpha), endogenous (from UniProt P19793 1-462)”, for which the binding result in assay [3] is reported as “binds”.

The record behind these values is publication PMC10863175.
